This is an account of results in publication PMC12557607.

Results are given in words; binding and its absence hold for the method and conditions named. In cells and extracts the contact can be indirect. Some binding calls cover weakened binding; strength is not graded here.

Test [1] has as its target FAM136A-HA (human) (UniProt Q96C01). As to the kind of experiment: co-IP; FAM136A-HA precipitated with anti-HA agarose from HEK293 cells after NEM; denaturing lysis (30 mM Tris pH 8.1, 100 mM NaCl, 5 mM EDTA, SDS, then Triton X-100); blot for MIA40.
Test [2] shares this target. In words: co-IP; FAM136A-HA precipitated with anti-HA agarose from HEK293 cells after NEM (20 mM); native lysis (100 mM Na-Pi pH 8.1, 100 mM NaCl, 1 % Triton X-100); blot for MIA40; also after 4 h cycloheximide (100 ug/ml).

B1: MIA40 (enzyme, UniProt Q8N4Q1 1-142)
chain: MSYCRQEGKDRIIFVTKEDHETPSSAELVADDPNDPYEEHGLILPNGNINWNCPCLGGMASGPCGEQFKSAFSCFHYSTEEIKGSDCVDQFRAMQECMQKYPDLYPQEDEDEEEEREKKPAEQAEETAPIEATATKEEEGSS
Take B1: the binding entry in the test with FAM136A-HA (human) [1] and with FAM136A-HA (human) [2] was “binds” each time.
